Assay results reported in PubChem BioAssay AID493014 (National Center for Advancing Translational Sciences (NCATS), 2011).
In all, about 340,000 compounds went through this assay and about 170 (0.05%) were called active. Inconclusive results, whose numbers are uncertain, are shown with a selection of clear calls. Calls follow the shape of the dose curve; as a rule, active = well fitted inhibition curve with a large enough effect in the signal ratio, with a control signal flat (not every such curve was filed as active); inconclusive = small, poorly fitted or top-dose-only effect, or effect the other way, or a change in a side signal; inactive = flat fitted curve, though single readings scatter; the % refers to the signal ratio. Potencies of inconclusive entries are doubtful fits and often do not repeat.

Assay: qHTS Assay to Find Inhibitors of Chronic Active B-Cell Receptor Signaling;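 as to activity change, negative = inhibition: plate controls were basal doxycycline-induced cells for no effect and cells given 10 µM MG132 for full effect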
Details: ABC-DLBCL IkBa-CBG/CBR reporter, luminescence ratio (green luciferase fused to IkBa over red control in TMD8 lymphoma cells), 4 h; activity change, negative = inhibition: at 46.1 µM (top of the series)
Summary of the method: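 Concentration-response series (up to 46 uM) were applied to TMD8 dual-reporter cells for 4 h at 37C with doxycycline. Green/red ratio, after filter-overlap correction, defined %Activity; red signal alone was normalised to basal cells and zero luminescence.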
Potency is read from the fitted curve at half-maximal effect.

Row | SMILES | activity change, negative = inhibition | Potency
1 | Cc1nn(-c2ccccc2)c2sc(C(=O)O)cc12 | inactive | –
2 | CCOC(=O)c1cc(-c2ccc(/C=C3/C(=O)N(c4ccc(C(=O)O)cc4)N=C3C)o2)ccc1Cl | – | inconclusive: 10 µM [falling, partial curve]
3 | COc1ccccc1C(NC(C)=O)c1cc(Cl)c2cccnc2c1O (stereo unspecified) | inconclusive: -28.3% | –
4 | O=C1CCN(CCc2ccccc2)CCN1CCSc1ccc(Br)cc1 | inconclusive: -8.17% | –
5 | CCOC(=O)c1c(C)[nH]c(C=O)c1Cc1cccc(Cl)c1 | inconclusive: -12.9% | –
6 | COc1ccc(C(=O)N2CCc3ccc(NC(=O)c4ccccn4)cc3C2)cc1F | inconclusive: -21.8% | –
7 | Clc1ccc(OCCSc2ncccn2)cc1 | inconclusive: 17.4% | –
8 | N#Cc1nc(COc2cccc(Cl)c2)oc1NCc1ccco1 | – | inconclusive: 35.5 µM [falling, single point]
9 | O=C(c1ccc(Br)s1)N1CCc2ccccc2C1 | inconclusive: -0.639% | –
10 | Cc1ccc(NC(=O)c2ccc(CNS(=O)(=O)c3cccc(C(F)(F)F)c3)cc2)cc1 | inconclusive: 8.12% | –
11 | COc1ccc(OC)c(N/C=C2/CCCCC2=O)c1 | – | inconclusive: 8.2 µM [falling, partial curve]
12 | Cc1cccc(-n2c(SCC(=O)N3CCCC3)nc3n[nH]c(C)c3c2=N)c1 | – | inconclusive: 10.3 µM [falling, partial curve, poor fit]
13 | COc1ccc(C(=O)N/C(N)=N/c2nc3ccccc3o2)cc1 | inactive | –
14 | C[C@H]1CN=C(Nc2ccccc2)N1CCC1CCCCC1 | inconclusive: -18.1% | –
15 | COC(=O)c1ccc(CSc2nnc(-c3ccc4c(c3)OCO4)n2-c2ccccc2)o1 | inconclusive: 0.625% | –
16 | Cc1nc2ccc(C(=O)Nc3cccc([N+](=O)[O-])c3)cc2s1 | inconclusive: -0.0195% | –
17 | CCn1nc(NC(=O)COC)c2cc3cc(C)ccc3nc21 | inactive | –
18 | CNc1oc(-c2ccc(Cl)cc2)nc1P(=O)(c1ccccc1)c1ccccc1 | inactive | –
19 | CCCCOc1ccc(N(CC(=O)NCC2CCCO2)C(=O)CCC(=O)Nc2nccs2)cc1 (stereo unspecified) | inconclusive: 16.5% | –
20 | CCOc1ccc(N2C(=O)c3ccccc3NC2(C)CC)cc1 (stereo unspecified) | – | inconclusive: 18.4 µM [falling, partial curve]
21 | CC1(C)CC2CC(C)(CN2C(=O)c2cc(-c3ccc(O)cc3)on2)C1 (stereo unspecified) | inactive | –

Row | SMILES | activity change, negative = inhibition | Potency
22 | CC(C(=O)NCCCc1ccccc1)c1ccc([N+](=O)[O-])cc1 (stereo unspecified) | inconclusive: 0.179% | –
23 | CCOC(=O)c1cnn(-c2ccc(C(C)C)cc2)c1NC(=O)C1CCC1 | inconclusive: 12% | –
24 | CCC(C(=O)Nc1ccc2c(c1)OCCO2)n1c(=O)[nH]c2ccccc2c1=O (stereo unspecified) | inactive | –
25 | c1ccc2c(c1)CCN(c1ncnc3c1[nH]c1ccccc13)C2 | inconclusive: 1.5% | –
26 | Cc1cc(NC(=S)N(CCN2CCCCC2)Cc2ccco2)ccc1Cl | inconclusive: -26.3% | –
27 | O=C(CC(Sc1ccc(Br)cc1)C(=O)O)c1ccc(F)cc1 (stereo unspecified) | inconclusive: -10.2% | –
28 | Nc1ccc(O)cc1C(=O)OCC(=O)c1ccc(C2CCCCC2)cc1 | inconclusive: -0.27% | –
29 | CCC(C)NC(=O)c1cc(C)no1 (stereo unspecified) | – | inconclusive: 29.1 µM [rising, single point]
30 | Oc1ccc(/C=N/n2cnn(Cc3ccccc3Cl)c2=S)c(O)c1 | inconclusive: -8% | –
31 | Cn1cc(CN2CCC(C(=O)N3CCCC3)CC2)c(-c2ccccc2F)n1 | inconclusive: 9.97% | –
32 | CN1C2CCC1/C(=C\c1ccc(F)cc1)C(=O)/C2=C/c1ccc(F)cc1 | inactive | –
33 | CN(CC(=O)Nc1cccc(F)c1)C(=O)CC1CCCCC1 | inactive | –
34 | CCOc1ccc(CN(C)CC(=O)Nc2ccc([N+](=O)[O-])cc2Cl)cc1 | inactive | –
35 | CCOCCN1CCN(c2c3c(nc4cc(-c5ccc(F)cc5)nn24)CCC3)CC1 | inconclusive: -1.95% | –
36 | COc1ccc2cnn(-c3ccc(OC(F)(F)F)cc3)c(=O)c2c1OC | inconclusive: 14.5% | –
37 | CCn1c(SCC(=O)Nc2ccc(C(C)=O)cc2)nc2nc3c(cc2c1=O)COC(C)(C)C3 | inconclusive: -5.86% | –
38 | Cc1ccc(C(=O)c2cnc3ccccc3c2-c2ccccc2)cc1 | inconclusive: 6.58% | –
39 | Cc1ccc(CC2S/C(=C(/C#N)C(=O)N3CCOCC3)N(c3ccccc3)C2=O)cc1 (stereo unspecified) | inconclusive: -14.1% | –
40 | O=C(CCC1CCCCC1)NCc1ccc(F)cc1 | inconclusive: 6.73% | –
41 | C/C(=C\C(=O)c1ccccc1)Nc1ccc(O)cc1 | – | inconclusive: 29.1 µM [falling, single point]
42 | O=C(NCc1ccccc1F)C1CCCN(C(=O)Nc2ccc(F)cc2)C1 (stereo unspecified) | inactive | –

Ordered by length of the SMILES (falling): 15 of the compounds above
Row | SMILES | activity change, negative = inhibition | Potency
37 | CCn1c(SCC(=O)Nc2ccc(C(C)=O)cc2)nc2nc3c(cc2c1=O)COC(C)(C)C3 | inconclusive: -5.86% | –
39 | Cc1ccc(CC2S/C(=C(/C#N)C(=O)N3CCOCC3)N(c3ccccc3)C2=O)cc1 (stereo unspecified) | inconclusive: -14.1% | –
24 | CCC(C(=O)Nc1ccc2c(c1)OCCO2)n1c(=O)[nH]c2ccccc2c1=O (stereo unspecified) | inactive | –
34 | CCOc1ccc(CN(C)CC(=O)Nc2ccc([N+](=O)[O-])cc2Cl)cc1 | inactive | –
23 | CCOC(=O)c1cnn(-c2ccc(C(C)C)cc2)c1NC(=O)C1CCC1 | inconclusive: 12% | –
36 | COc1ccc2cnn(-c3ccc(OC(F)(F)F)cc3)c(=O)c2c1OC | inconclusive: 14.5% | –
22 | CC(C(=O)NCCCc1ccccc1)c1ccc([N+](=O)[O-])cc1 (stereo unspecified) | inconclusive: 0.179% | –
28 | Nc1ccc(O)cc1C(=O)OCC(=O)c1ccc(C2CCCCC2)cc1 | inconclusive: -0.27% | –
30 | Oc1ccc(/C=N/n2cnn(Cc3ccccc3Cl)c2=S)c(O)c1 | inconclusive: -8% | –
25 | c1ccc2c(c1)CCN(c1ncnc3c1[nH]c1ccccc13)C2 | inconclusive: 1.5% | –
27 | O=C(CC(Sc1ccc(Br)cc1)C(=O)O)c1ccc(F)cc1 (stereo unspecified) | inconclusive: -10.2% | –
33 | CN(CC(=O)Nc1cccc(F)c1)C(=O)CC1CCCCC1 | inactive | –
41 | C/C(=C\C(=O)c1ccccc1)Nc1ccc(O)cc1 | – | inconclusive: 29.1 µM [falling, single point]
40 | O=C(CCC1CCCCC1)NCc1ccc(F)cc1 | inconclusive: 6.73% | –
29 | CCC(C)NC(=O)c1cc(C)no1 (stereo unspecified) | – | inconclusive: 29.1 µM [rising, single point]

Following part.

Row | SMILES | activity change, negative = inhibition | Potency
43 | C=C(C)CNC(=S)N/N=C(\C)c1ccc(Cl)s1 | inactive | –
44 | O=C(NCCC(=O)N1CCCCCCC1)c1ccc(Cl)cc1 | inconclusive: 16.5% | –
45 | NNC(=S)NCc1ccco1 | – | inconclusive: 28.2 µM [falling, single point]
46 | C[C@H]1C(=O)N(C)CCN1Cc1cn(C)nc1-c1ccc(Oc2ccccc2)cc1 | inconclusive: 20.8% | –
47 | CC(C)CCOc1ccc(CO[C@@H]2[C@H]3OC(C)(C)O[C@H]3O[C@@H]2C(O)CO)cc1 (stereo partly specified) | – | inconclusive: 25.1 µM [falling, partial curve, poor fit]
48 | COc1ccc(-n2nc3c(c2NC(=O)CCl)CSC3)cc1 | – | inconclusive: 12.6 µM [falling, single point]
49 | Cc1cc(C)nc(SCc2nnc(SCC(=O)Nc3cc(C(F)(F)F)ccc3Cl)o2)n1 | inconclusive: -12.7% | –
50 | Cc1nn(-c2ccc(C(=O)O)cc2)c(C)c1Cl | – | inconclusive: 35.5 µM [falling, single point]
51 | COCc1cc(=O)n2[nH]cc(-c3ccsc3)c2n1 | inconclusive: -0.454% | –
52 | COc1cccc(/C=C2/SC(=O)N(C)C2=O)c1OCc1ccc(C(=O)O)cc1 | inconclusive: 1.18% | –
53 | COc1ccc(N2CCN(C3CCCN(S(=O)(=O)c4ccc(C)cc4C)C3)CC2)cc1 (stereo unspecified) | inactive | –
54 | Cc1ccccc1NCCNc1ccccc1C | inconclusive: -22.8% | –
55 | C/C(=N\NC(=O)c1cc(O)ccc1O)c1cccc(NC(=O)c2cccc(Cl)c2)c1 | – | inconclusive: 25.1 µM [falling, partial curve]
56 | CC1SC(=S)N(c2ccc(N(C)C)cc2)C1=O (stereo unspecified) | inactive | –
57 | COc1cc(/C=C2/SC(=S)N(Cc3ccccc3)C2=O)cc(Cl)c1O | inconclusive: 13.4% | –
58 | Cc1cc(N2CCOCC2)n2ncc(-c3ccccc3)c2n1 | – | inconclusive: 4.61 µM [falling, single point]
59 | CC(C)c1ccc(NC(=O)CSC2=Nc3ccccc3C3=NC(CC(=O)NC4CCCCC4)C(=O)N23)cc1 (stereo unspecified) | inactive | –
60 | CCc1ccc(NC(=O)C2CCCN(S(=O)(=O)c3cccs3)C2)cc1 (stereo unspecified) | – | inconclusive: 35.5 µM [falling, partial curve, poor fit]
61 | COc1ccc(-c2cc(C(=O)N3CCN(c4ccccc4F)CC3)c3ccccc3n2)c(OC)c1 | inactive | –
62 | O=C(Cc1ccc(S(=O)(=O)N2CCCCC2)s1)Nc1cccc2ccccc12 | inconclusive: 2.51% | –
63 | C/C(=C(/CCO)SSCC1CCCO1)N(C=O)Cc1cnc(C)nc1N (stereo unspecified) | – | inconclusive: 10.3 µM [falling, partial curve]

Copied from above, entries 49 to 50
Row | SMILES | activity change, negative = inhibition | Potency
49 | Cc1cc(C)nc(SCc2nnc(SCC(=O)Nc3cc(C(F)(F)F)ccc3Cl)o2)n1 | inconclusive: -12.7% | –
50 | Cc1nn(-c2ccc(C(=O)O)cc2)c(C)c1Cl | – | inconclusive: 35.5 µM [falling, single point]

Next structures:

Row | SMILES | activity change, negative = inhibition | Potency
64 | Cc1ccc2c(c1)[C@H]1[C@H](CO2)[C@H](c2ccccc2)[C@]2(C)C(=O)N(CC3CCCO3)CC(=O)N12 (stereo partly specified) | inactive | –
65 | Cc1ccc(C(C)C)c(OCC(=O)NN=C(CCl)CCl)c1 | inactive | –
66 | Cc1ccc(/C(N)=N/OC(=O)c2ccc(Cl)cc2Cl)cc1 | inconclusive: 7.92% | –
67 | N/C(=N\OC(=O)c1ccoc1)c1ccc(Br)cc1 | inconclusive: -0.381% | –
68 | COc1ccc(-c2c(-c3ccccc3OC)sc3ccccc23)cc1 | – | inconclusive: 1.12 µM [rising, full curve]
69 | Cc1ccc(-n2nnnc2SC(C)C(=O)NCC(=O)Nc2ccc(F)c(F)c2F)c(C)c1 (stereo unspecified) | inactive | –
70 | Cc1ccc(NC(=O)CCCNC(=O)c2ccc(Cl)cc2)c(O)c1 | inconclusive: 3.29% | –
71 | CN1CCN(c2ccccc2NC(=O)C(Cc2ccccc2)n2cccc2)CC1 (stereo unspecified) | inconclusive: -27.9% | –
72 | NS(=O)(=O)c1ccc(NC(=O)c2cc(-c3cc(Cl)ccc3O)n[nH]2)cc1 | – | inconclusive: 20 µM [falling, partial curve, poor fit]
73 | O=C(CCCSc1ccc(Cl)cc1)Nc1ccccc1O | – | inconclusive: 3.55 µM [falling, partial curve, poor fit]
74 | Cc1ccccc1NC(=O)C(C)O/N=C/c1cccc([N+](=O)[O-])c1 (stereo unspecified) | inconclusive: 0.829% | –
75 | COc1ccc(C(=O)COC(=O)/C=C/c2ccco2)cc1F | inconclusive: 5.45% | –
76 | NS(=O)(=O)c1cccc(NC(=O)COC(=O)CN2C(=O)C3CC=CCC3C2=O)c1 (stereo unspecified) | inconclusive: 4.67% | –
77 | Cc1ccc(C(=O)NN2C(=O)c3ccc(S(=O)(=O)c4ccc(C(=O)O)cc4)cc3C2=O)cc1 | – | inconclusive: 17.8 µM [falling, partial curve, poor fit]
78 | O=S1(=O)N=C(N/N=C/c2ccc(Br)o2)c2ccccc21 | inactive | –
79 | O=C(c1cc2cc([N+](=O)[O-])ccc2oc1=O)N1CCOCC1 | – | inconclusive: 0.316 µM [rising, full curve, poor fit]
80 | COc1ccc(C)cc1NC(=O)CCN1CCN(C/C=C/c2ccccc2)CC1 | inactive | –
81 | CS(=O)(=O)c1ccc(C(=O)OC2CCOC2=O)cc1[N+](=O)[O-] (stereo unspecified) | – | inconclusive: 35.5 µM [falling, partial curve, poor fit]
